Measured values taken from the supplement of paper PMC12067093, “Discovery and optimisation of a covalent ligand for TRIM25 and its application to targeted protein ubiquitination” (Chemical Science, 2025).
This is one part of the list.

Protein sequences, listed by entry. Tags and fused reporters are not part of them. Lines headed by an entry give the natural chain unless they say otherwise; changes in a name come on top.
UniProt Q9Y4X5: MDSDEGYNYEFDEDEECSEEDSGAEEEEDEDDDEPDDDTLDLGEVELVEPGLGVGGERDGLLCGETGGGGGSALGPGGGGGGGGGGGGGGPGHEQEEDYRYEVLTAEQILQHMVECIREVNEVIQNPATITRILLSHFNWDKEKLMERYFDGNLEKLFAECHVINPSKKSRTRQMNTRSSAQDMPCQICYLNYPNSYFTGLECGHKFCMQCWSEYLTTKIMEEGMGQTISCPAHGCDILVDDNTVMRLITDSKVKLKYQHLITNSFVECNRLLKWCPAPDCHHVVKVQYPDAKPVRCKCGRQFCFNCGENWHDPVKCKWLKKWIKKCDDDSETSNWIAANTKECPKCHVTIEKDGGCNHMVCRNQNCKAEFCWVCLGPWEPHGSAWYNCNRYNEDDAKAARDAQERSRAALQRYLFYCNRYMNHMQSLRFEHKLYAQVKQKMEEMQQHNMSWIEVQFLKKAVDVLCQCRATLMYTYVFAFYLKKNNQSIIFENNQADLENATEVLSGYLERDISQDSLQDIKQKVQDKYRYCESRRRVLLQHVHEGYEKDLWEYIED
UniProt O95376: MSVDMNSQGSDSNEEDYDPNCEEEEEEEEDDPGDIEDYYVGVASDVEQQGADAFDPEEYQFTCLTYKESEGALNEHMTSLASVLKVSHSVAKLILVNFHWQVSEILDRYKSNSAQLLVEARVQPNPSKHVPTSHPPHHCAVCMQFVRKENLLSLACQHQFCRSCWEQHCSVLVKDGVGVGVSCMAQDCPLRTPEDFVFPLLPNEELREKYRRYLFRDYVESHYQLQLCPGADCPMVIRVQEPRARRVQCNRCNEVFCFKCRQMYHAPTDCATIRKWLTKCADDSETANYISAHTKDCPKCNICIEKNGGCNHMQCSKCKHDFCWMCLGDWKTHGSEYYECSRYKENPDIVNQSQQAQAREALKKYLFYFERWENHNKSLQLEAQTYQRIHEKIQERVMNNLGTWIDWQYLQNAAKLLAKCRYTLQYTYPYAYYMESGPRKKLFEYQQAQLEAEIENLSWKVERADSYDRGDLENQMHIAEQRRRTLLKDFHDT
UniProt P98171: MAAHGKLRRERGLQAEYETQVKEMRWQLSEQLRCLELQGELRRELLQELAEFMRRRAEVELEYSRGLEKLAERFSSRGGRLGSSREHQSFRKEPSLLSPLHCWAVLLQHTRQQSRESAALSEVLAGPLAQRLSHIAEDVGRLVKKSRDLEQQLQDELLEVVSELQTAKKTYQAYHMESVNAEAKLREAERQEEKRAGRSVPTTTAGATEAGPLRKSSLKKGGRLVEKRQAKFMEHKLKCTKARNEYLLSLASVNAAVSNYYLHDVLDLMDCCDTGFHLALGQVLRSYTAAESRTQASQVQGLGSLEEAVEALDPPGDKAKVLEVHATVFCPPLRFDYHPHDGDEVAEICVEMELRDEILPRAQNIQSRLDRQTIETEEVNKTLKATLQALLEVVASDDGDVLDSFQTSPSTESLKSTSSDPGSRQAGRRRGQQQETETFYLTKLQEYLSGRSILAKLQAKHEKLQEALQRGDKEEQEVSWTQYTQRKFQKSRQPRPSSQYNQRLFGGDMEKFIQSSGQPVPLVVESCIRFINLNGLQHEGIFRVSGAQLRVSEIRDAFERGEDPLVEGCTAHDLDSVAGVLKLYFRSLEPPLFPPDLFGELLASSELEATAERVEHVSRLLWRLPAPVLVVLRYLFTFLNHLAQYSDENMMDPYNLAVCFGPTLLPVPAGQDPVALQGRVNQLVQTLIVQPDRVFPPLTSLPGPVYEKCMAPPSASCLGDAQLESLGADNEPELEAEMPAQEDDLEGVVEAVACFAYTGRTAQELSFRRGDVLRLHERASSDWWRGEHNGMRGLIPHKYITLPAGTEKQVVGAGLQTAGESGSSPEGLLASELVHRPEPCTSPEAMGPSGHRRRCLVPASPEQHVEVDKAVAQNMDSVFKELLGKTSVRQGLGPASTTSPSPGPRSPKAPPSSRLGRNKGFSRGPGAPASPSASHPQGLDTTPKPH
UniProt Q92747, whole entry, looked up: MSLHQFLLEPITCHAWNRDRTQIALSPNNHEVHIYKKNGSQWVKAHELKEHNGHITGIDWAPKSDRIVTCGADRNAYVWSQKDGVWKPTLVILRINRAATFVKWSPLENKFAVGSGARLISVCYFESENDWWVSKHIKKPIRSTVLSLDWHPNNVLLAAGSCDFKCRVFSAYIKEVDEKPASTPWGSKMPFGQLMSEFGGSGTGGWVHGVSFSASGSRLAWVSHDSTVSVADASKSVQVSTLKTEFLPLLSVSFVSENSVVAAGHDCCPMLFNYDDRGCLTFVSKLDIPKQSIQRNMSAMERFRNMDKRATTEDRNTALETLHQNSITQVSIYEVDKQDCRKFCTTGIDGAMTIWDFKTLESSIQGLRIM
UniProt Q92974: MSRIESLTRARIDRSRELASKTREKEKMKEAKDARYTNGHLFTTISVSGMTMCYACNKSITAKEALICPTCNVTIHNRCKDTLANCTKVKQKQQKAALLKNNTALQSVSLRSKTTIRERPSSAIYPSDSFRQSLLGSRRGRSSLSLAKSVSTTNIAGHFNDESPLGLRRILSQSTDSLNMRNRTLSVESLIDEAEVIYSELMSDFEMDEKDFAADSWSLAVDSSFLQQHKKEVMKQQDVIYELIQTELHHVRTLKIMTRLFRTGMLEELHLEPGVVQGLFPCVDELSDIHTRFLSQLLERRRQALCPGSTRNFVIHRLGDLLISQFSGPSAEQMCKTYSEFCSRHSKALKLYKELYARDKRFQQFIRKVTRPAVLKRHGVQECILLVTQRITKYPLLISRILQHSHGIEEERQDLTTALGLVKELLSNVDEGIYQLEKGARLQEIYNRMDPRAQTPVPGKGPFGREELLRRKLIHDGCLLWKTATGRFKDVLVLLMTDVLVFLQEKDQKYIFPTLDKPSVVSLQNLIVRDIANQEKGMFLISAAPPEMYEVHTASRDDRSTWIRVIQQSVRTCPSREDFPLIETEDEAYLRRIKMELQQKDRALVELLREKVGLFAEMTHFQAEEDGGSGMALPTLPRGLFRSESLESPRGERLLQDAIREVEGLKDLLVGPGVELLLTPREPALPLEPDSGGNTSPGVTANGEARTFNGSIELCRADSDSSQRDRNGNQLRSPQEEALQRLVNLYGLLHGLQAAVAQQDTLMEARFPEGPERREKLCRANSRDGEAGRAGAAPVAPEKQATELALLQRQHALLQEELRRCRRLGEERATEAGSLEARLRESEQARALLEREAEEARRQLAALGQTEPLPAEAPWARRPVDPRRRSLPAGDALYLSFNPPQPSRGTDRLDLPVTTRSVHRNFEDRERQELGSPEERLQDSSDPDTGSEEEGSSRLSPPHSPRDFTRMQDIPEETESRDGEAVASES
UniProt P62330: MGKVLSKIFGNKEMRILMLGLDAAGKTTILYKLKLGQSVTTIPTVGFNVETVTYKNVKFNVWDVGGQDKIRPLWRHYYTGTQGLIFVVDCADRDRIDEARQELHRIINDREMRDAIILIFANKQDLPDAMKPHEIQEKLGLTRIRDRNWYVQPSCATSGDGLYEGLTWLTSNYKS
UniProt Q7Z6I6: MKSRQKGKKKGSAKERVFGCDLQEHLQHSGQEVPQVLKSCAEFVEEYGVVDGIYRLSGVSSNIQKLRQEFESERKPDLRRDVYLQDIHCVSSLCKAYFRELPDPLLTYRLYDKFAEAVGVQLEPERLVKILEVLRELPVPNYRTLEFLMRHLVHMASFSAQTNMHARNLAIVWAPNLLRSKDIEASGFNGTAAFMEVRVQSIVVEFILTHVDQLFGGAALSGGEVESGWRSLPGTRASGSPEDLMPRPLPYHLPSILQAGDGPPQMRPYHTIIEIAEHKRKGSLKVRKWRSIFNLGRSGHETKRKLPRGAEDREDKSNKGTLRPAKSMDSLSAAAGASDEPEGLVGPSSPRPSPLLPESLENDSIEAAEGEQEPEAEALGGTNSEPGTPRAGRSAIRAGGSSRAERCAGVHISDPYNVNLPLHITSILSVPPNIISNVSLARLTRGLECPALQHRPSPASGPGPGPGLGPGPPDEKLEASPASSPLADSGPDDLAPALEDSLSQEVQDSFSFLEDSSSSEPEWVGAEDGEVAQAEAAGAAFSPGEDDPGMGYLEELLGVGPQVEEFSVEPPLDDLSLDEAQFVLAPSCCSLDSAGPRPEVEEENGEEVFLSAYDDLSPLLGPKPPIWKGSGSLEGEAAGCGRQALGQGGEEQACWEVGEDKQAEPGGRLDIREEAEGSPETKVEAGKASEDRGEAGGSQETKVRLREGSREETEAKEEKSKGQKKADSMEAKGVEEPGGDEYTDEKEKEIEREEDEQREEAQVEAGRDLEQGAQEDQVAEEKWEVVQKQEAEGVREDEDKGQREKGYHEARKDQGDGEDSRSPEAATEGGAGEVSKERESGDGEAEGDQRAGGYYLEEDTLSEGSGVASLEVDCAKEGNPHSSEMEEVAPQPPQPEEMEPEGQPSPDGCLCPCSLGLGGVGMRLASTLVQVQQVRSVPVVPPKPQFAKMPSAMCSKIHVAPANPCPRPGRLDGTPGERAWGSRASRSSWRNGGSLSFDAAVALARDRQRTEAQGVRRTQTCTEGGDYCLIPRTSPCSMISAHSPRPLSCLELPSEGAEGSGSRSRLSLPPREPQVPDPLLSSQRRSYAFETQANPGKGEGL
UniProt Q9Y2Y0: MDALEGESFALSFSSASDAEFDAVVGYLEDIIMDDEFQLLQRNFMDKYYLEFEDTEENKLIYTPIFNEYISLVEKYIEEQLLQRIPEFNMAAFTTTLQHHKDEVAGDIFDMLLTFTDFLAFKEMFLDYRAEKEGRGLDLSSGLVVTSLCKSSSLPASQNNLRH
UniProt Q8N392: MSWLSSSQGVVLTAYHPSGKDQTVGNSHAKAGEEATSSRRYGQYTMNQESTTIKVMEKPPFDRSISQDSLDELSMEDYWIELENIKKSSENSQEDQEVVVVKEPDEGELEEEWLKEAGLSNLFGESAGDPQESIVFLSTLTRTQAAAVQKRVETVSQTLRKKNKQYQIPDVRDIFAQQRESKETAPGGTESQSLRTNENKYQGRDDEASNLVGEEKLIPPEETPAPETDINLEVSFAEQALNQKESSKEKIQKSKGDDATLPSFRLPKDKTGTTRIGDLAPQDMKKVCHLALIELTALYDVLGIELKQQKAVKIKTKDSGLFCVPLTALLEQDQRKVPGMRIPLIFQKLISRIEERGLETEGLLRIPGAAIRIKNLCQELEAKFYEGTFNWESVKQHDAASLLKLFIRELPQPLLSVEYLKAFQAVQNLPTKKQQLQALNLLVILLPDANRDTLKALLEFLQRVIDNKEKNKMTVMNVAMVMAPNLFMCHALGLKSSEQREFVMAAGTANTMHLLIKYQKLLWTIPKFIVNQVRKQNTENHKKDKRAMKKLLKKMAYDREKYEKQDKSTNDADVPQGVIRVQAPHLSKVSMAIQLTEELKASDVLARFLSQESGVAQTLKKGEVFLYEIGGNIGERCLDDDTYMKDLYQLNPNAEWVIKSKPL
UniProt Q92619: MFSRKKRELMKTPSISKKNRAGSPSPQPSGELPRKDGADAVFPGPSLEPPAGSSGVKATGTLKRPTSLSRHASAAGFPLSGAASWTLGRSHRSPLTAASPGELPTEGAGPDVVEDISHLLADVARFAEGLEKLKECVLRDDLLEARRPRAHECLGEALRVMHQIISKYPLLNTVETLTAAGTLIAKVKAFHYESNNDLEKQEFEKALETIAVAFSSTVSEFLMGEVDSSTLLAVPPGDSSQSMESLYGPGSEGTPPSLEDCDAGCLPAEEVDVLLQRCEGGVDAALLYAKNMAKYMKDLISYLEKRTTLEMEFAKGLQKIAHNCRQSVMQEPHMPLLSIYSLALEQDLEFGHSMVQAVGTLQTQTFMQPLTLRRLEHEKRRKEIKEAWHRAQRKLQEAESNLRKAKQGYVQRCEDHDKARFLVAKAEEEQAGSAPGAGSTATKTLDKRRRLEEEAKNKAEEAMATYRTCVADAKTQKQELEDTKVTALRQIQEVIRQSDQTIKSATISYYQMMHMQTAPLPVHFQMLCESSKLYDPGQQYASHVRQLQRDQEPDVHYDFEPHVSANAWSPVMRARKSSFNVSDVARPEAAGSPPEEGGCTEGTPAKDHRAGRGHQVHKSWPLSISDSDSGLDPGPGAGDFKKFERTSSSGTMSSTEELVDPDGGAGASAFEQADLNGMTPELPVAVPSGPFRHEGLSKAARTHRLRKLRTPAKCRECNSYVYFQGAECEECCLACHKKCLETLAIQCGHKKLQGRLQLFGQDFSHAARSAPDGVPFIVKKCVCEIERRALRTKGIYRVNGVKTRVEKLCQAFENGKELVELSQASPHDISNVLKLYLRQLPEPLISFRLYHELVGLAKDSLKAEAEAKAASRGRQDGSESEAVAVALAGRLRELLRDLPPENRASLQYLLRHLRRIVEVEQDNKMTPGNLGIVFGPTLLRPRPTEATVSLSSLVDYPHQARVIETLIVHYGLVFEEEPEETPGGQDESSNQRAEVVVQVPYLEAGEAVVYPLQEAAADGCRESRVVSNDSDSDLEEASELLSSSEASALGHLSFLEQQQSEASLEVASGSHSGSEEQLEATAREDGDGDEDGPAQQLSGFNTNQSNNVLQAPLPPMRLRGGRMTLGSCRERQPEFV

compound: Cc1cc(ccc1-c1ccccc1)C(=O)N1CCCN(CC1)C(=O)CCl [compound 10]; assay: probe-labelled cysteine peptide fold change vs DMSO (competition) (log2 fold change); higher = less target engagement (more negative = stronger competition); settings: 10 µM; THP-1; incubation time: 4 h
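Also: competitive profiling in live THP-1 cells: cysteine peptides tagged with an iodoacetamide desthiobiotin (IA-DTB) probe, intensity after compound treatment relative to DMSO-treated cells.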

Row | Target | probe-labelled cysteine peptide fold change
1 | ARIH1_Q9Y4X5_281_WCPAPDCHHVVK (UniProt Q9Y4X5) | -0.0464
2 | ARHGEF10_O15013_809_AADCCR (UniProt O15013) | -0.155
3 | ARID2_Q68CP9_382_GMEILGNLCK (UniProt Q68CP9) | 0.216
4 | ARHGAP17_Q68EM7_53_LVACFQGQHGTDAERR (UniProt Q68EM7) | 0.0758
5 | ARIH2_O95376_340_THGSEYYECSR (UniProt O95376) | -0.0814
6 | ARHGAP4_P98171_330_VLEVHATVFCPPLR (UniProt P98171) | 0.14
7 | APRT_P07741_83_GFLFGPSLAQELGLGCVLIR (UniProt P07741) | 0.24
8 | ARPC1A_Q92747_70_IVTCGADR (UniProt Q92747) | -0.0719
9 | ARHGEF2_Q92974_573_TCPSREDFPLIETEDEAYLRR (UniProt Q92974) | -0.0481
10 | ARF6_P62330_90_HYYTGTQGLIFVVDCADRDRIDEAR (UniProt P62330) | 0.0501
11 | ARHGAP30_Q7Z6I6_654_QALGQGGEEQACWEVGEDK (UniProt Q7Z6I6) | -0.272
12 | ARL2BP_Q9Y2Y0_149_GLDLSSGLVVTSLCK (UniProt Q9Y2Y0) | -0.0761
13 | ARHGAP18_Q8N392_323_DSGLFCVPLTALLEQDQR (UniProt Q8N392) | -0.0472
14 | AQR_O60306_997_SYEEDMEIAEGCFR (UniProt O60306) | 0.122
15 | ARHGAP45_Q92619_739+747_CLETLAIQCGHK (UniProt Q92619) | -0.116
16 | ARID1B_Q8NFD5_2074_LVLETLCK (UniProt Q8NFD5) | 0.4

Part of the list above, as comma-separated lines.
Row,Target,probe-labelled cysteine peptide fold change
6,ARHGAP4_P98171_330_VLEVHATVFCPPLR (UniProt P98171),0.14
11,ARHGAP30_Q7Z6I6_654_QALGQGGEEQACWEVGEDK (UniProt Q7Z6I6),-0.272
